# Measurements from paper PMC7819943, “Rice protein-binding microarrays: a tool to detect cis-acting elements near promoter regions in rice”.
# This is one part of the list.
# Target: T1, OsSMF1 (Oryza sativa, UniProt Q6ZLB0 1-436)
# T1 sequence: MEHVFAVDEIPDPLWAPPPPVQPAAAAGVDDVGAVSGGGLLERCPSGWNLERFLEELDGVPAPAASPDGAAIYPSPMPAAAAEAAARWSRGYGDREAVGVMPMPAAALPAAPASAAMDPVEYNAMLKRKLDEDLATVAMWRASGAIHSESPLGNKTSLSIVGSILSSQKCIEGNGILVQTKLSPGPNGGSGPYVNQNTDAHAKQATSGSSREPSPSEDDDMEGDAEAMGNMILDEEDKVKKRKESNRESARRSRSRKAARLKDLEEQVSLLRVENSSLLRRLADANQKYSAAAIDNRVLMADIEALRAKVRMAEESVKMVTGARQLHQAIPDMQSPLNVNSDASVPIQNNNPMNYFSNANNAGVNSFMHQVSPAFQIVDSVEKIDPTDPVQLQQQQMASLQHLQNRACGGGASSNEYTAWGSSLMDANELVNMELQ
# Assay: protein-binding microarray (RPBM); PBS, 2% BSA, 51.3 ng/ul salmon testes DNA, 50 uM zinc acetate, 200 nM TF, 25 C, 1 h; high values mean tight binding
# Conditions: protein: recombinant; tags: N-terminal polyhistidine and DsRed monomer fusion (pET32a); chain copies: 2; label: CyDye5-dUTP incorporated in the synthesized complementary strand; 3' TTTTT single-stranded linker to array surface; dsDNA, one strand shown
# Method in brief: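 Per-feature fluorescence intensity (arbitrary units), read on an Axon 4000B scanner, is the binding signal. Transcription factors carrying an N-terminal polyhistidine tag and DsRed fusion were expressed in E. coli BL21-CodonPlus and purified on Ni–NTA. A custom Agilent array, made double-stranded by primer extension with Cy5-dUTP and blocked with 2% BSA, was incubated with 200 nM protein in PBS, 2% BSA, salmon testes DNA and 50 µM zinc acetate at 25 °C for 1 h and then washed.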
row,Sequence,binding signal
1,TTTTGCGGACTTGCTCTGATTTTGGGAAATGGAAAGAGGACGGAGTCACCTAGTGCAG,25200 fluorescence intensity (a.u.)
2,ATTGTTAACTCATGTTGTTGCTCAAATAAACAAAAGTTAACGGAGTCACCTAGTGCAG,28500 fluorescence intensity (a.u.)
3,ATCCATCTTCGTGACAGCTCCGAGCTTTCTCCTGGTTATTCGGAGTCACCTAGTGCAG,3510 fluorescence intensity (a.u.)
4,AGAACGTGTGTGTGCCTCTCGAGTCACGAGCTGCTGTACACGGAGTCACCTAGTGCAG,3730 fluorescence intensity (a.u.)
5,CGTGGCACTTAGCGATGAGTGCTGTCGTCAGTAGCAATCCCGGAGTCACCTAGTGCAG,4620 fluorescence intensity (a.u.)
6,ATCGGGCCGTCCATCCATCTCGCGTCACACGGTCCACCACCGGAGTCACCTAGTGCAG,4050 fluorescence intensity (a.u.)
7,TTTATAATAATTGTAAGTTGTCAGTCCACGTAATTGGAGCCGGAGTCACCTAGTGCAG,7460 fluorescence intensity (a.u.)
8,GTTCTTTTCGCTATGATGACGCCAATGGAGCTACGAAGTACGGAGTCACCTAGTGCAG,3750 fluorescence intensity (a.u.)
9,CTACACGGGTCCGGTCACCGCGTCTCGTCGTCGTGGCTTGCGGAGTCACCTAGTGCAG,4170 fluorescence intensity (a.u.)
10,CAAGACAGAATGGAAAAGACGACACATCACCTCTTTTGCACGGAGTCACCTAGTGCAG,5560 fluorescence intensity (a.u.)
11,CACCCACTGACACGTGGTCCCCACCCACCCCACCTGTCCCCGGAGTCACCTAGTGCAG,12900 fluorescence intensity (a.u.)
12,TTTCTAGCATATGAATGTGGGCAATGCTAGAAAGTCTTATCGGAGTCACCTAGTGCAG,3980 fluorescence intensity (a.u.)
13,AACTTGCTCGAACTCTCTTTCTCACGTGTGTTCATGGGCCCGGAGTCACCTAGTGCAG,3840 fluorescence intensity (a.u.)
14,CTCATTTGGATCGCACAGAAAGAATGGCTGAGAGCCAGACCGGAGTCACCTAGTGCAG,28300 fluorescence intensity (a.u.)
15,ATGCACAAATGCACGATGCACAACCCTCCCGGTCTCTCCCCGGAGTCACCTAGTGCAG,3220 fluorescence intensity (a.u.)
16,TGTGGGTTGGAGGGAGGAGGGGATTGAAGGGTTGTTAATTCGGAGTCACCTAGTGCAG,4650 fluorescence intensity (a.u.)
17,GTCTTATAATATGAAACGGATGAAGTATTAGATAGCCGAACGGAGTCACCTAGTGCAG,3300 fluorescence intensity (a.u.)
18,GACCCTTCGCGAGTTCGATGCTCCCTCGCTGACAACATGCCGGAGTCACCTAGTGCAG,4000 fluorescence intensity (a.u.)
19,TCAGTTGGGAGTGTGAGCTGATTCATCAGCAACTCGTAGCCGGAGTCACCTAGTGCAG,4250 fluorescence intensity (a.u.)
20,GGGCGACCCGTCACGCGTGCGTGCGTGCGTGCGTGCTCGCCGGAGTCACCTAGTGCAG,6010 fluorescence intensity (a.u.)
21,ACCTGTCATGCTGACGTAGCACCTGACGAGGCCTGGCCCACGGAGTCACCTAGTGCAG,26500 fluorescence intensity (a.u.)

# A different layout for part of the listing above:
row | Sequence | binding signal
6 | ATCGGGCCGTCCATCCATCTCGCGTCACACGGTCCACCACCGGAGTCACCTAGTGCAG | 4050 fluorescence intensity (a.u.)
21 | ACCTGTCATGCTGACGTAGCACCTGACGAGGCCTGGCCCACGGAGTCACCTAGTGCAG | 26500 fluorescence intensity (a.u.)

# Following part

row,Sequence,binding signal
1,CGCCGTCACGCACCCACGCACGCACGCACGCACGCATATACGGAGTCACCTAGTGCAG,3640 fluorescence intensity (a.u.)
2,CAAAAGGGAACCAGCTGTCGCGATACAGCAGGTGGGAGGACGGAGTCACCTAGTGCAG,12200 fluorescence intensity (a.u.)
3,ACTGACGTGACGTGTCGCTTACGTGGCTAATTTAACTATGCGGAGTCACCTAGTGCAG,34000 fluorescence intensity (a.u.)
4,AAACTCTCACTCGCTCACTCACACCTCACACGCTGCTGCTCGGAGTCACCTAGTGCAG,3730 fluorescence intensity (a.u.)
5,AAGAAAATCTCCTGTCTCAGTCTCCTCCGCTCCTTGCGCCCGGAGTCACCTAGTGCAG,54400 fluorescence intensity (a.u.)
6,CGCCCCTGCGCCGCCTCCTCCGCGTCGACGCCCTCGTCCTCGGAGTCACCTAGTGCAG,3140 fluorescence intensity (a.u.)
7,GCTACACTTGTCCTCATTTACCAACACACAAGCTCTCCCTCGGAGTCACCTAGTGCAG,3200 fluorescence intensity (a.u.)
8,GCTTGGAGTGTAGAGAGTGGTATGATTCGAAAATTAGCTGCGGAGTCACCTAGTGCAG,3150 fluorescence intensity (a.u.)
9,TGGCAACGTACGTCAACGGTCGTCCGTGGTATTCTTATTACGGAGTCACCTAGTGCAG,3430 fluorescence intensity (a.u.)
10,GCCGTGGCGCGTCGCCGGCCGACCTCCCGGCCTGGCGGCCCGGAGTCACCTAGTGCAG,5160 fluorescence intensity (a.u.)
11,CACTGGTGATGCAGTGTCGGCGGATGATAACAAACGTGTGCGGAGTCACCTAGTGCAG,3240 fluorescence intensity (a.u.)
12,AAGAGGGAGGGGAGGGTTCGCGAACCAGTAGAAAACGGCTCGGAGTCACCTAGTGCAG,3390 fluorescence intensity (a.u.)
13,CATCTAATTGCCACATAAGCGCCACGTCAACGACACGTTGCGGAGTCACCTAGTGCAG,41300 fluorescence intensity (a.u.)
14,ATCACCACTTCGTCCAGGGCCTACGCACCAAATCACAATCCGGAGTCACCTAGTGCAG,3330 fluorescence intensity (a.u.)
15,TAGGAATAGGATTGGGGTGCCAGCGCGGCAGCAGCAAACCCGGAGTCACCTAGTGCAG,5080 fluorescence intensity (a.u.)
16,TCTTCACCACTTCTTGCATGATCATATGAACGCTGAGGTGCGGAGTCACCTAGTGCAG,6550 fluorescence intensity (a.u.)
17,CGGCCGCCACGACGACCCCGCGTCACCCTAGGGCATAGCCCGGAGTCACCTAGTGCAG,4730 fluorescence intensity (a.u.)
18,TGCTCCGGTGGGTGTCCTATTTATAGAAATAAATTTCATACGGAGTCACCTAGTGCAG,38600 fluorescence intensity (a.u.)
19,ACAAAGTTCAGATCTGTGCAAGGCAAGATGATATTGAAGTCGGAGTCACCTAGTGCAG,26800 fluorescence intensity (a.u.)
20,AAAAGTTTAGACAAGAAAACACGTAACAAGTTGGTTTGCACGGAGTCACCTAGTGCAG,4100 fluorescence intensity (a.u.)
21,CGGGTTGGTAACTCTTGCCTCCAGCATAGAAAACGGAGCGCGGAGTCACCTAGTGCAG,3930 fluorescence intensity (a.u.)
